Patent US20170348337A1, “MULTIFUNCTIONAL MEMBRANE-ACTIVE AMINOGLYCOSIDE-PEPTIDE CONJUGATES” (priority 2014, published 2017)
Not every detail of the peptide structures is certain; ends, links or a residue may be inferred. Some of these results come from one statement about several compounds together. Residues, ends and D or L forms follow the SMILES beside them.

Assays:
[1] = test system: P. acnes laboratory strain ATCC 6919; assay: P. acnes CFU assay, laboratory strain; assay type: cell-based, Propionibacterium acnes
[2] = test system: IL-6, IL-8, TNF-α and IL-12p40 in human monocytes; assay: cytokine ELISA in P. acnes-activated monocytes; assay type: cell-based; details: 24 hrs co-treatment
Description: (§1) Peripheral blood mononuclear cells (PBMCs) were isolated from whole blood of normal healthy donors as approved by the Institutional Review Board at UCLA using Ficoll-Paque gradients (GE Healthcare, Piscataway, N.J.) and plated onto six-well tissue culture plates (20×10^6-30×10^6 per well) for 2 hours in RPMI 1640 medium (Invitrogen Life Technologies, Carlsbad, Calif.) supplemented with 1% fetal calf serum (Omega Scientific, Tarzana, Calif.). Nonadherent cells were removed by rigorously washing three times with RPMI. Adherent monocytes were stimulated (co-treated) with media or P. acnes in the presence of tobramycin or Pentobra in 10% fetal calf serum. P. acnes was used at an MOI of 0.5 and cells were cultured for 24 hours at 37° C.
IL-6, IL-8, Tumor necrosis factor alpha (TNF-α) and IL-12p40 levels in culture supernatants were measured by ELISA following the manufacturer's recommendations (Invitrogen). Samples were assayed in triplicates. Results are expressed as mean±SD of at least three independent experiments, with monocytes obtained from three independent donors.
(§2) Monocytes were cultured and evaluated for cytokine and chemokine expression by ELISA and real time PCR after 24 hrs.

[3] = test system: P. acnes in comedone extracts; assay: microcomedone assay (human comedone extracts); assay type: cell-based, Propionibacterium acnes; details: 10^2 μM, 3 h
[4] = test system: MCP-1, MDC, IP-10 and IL-12p40 in human monocytes; assay type: cell-based; details: 24 hrs co-treatment
Description: as §1
Monocytes were stimulated with media or P. acnes in the presence of tobramycin or Pentobra. Total RNA was isolated using Trizol reagent (Invitrogen, Carlsbad, Calif.) following manufacturer's protocol and treated with RNase-free DNase. RNA concentration and quality were determined by spectrophotometry. RNA samples were reverse-transcribed to cDNA using iScript cDNA synthesis kit (Bio-Rad, Hercules, Calif.). Reactions were done at 25° C. for 5 minutes, 42° C. for 30 minutes and 85° C. for 5 minutes. Real-time PCR was applied using iQ SYBR Green supermix (Bio-Rad). Forty cycles were carried out at 95° C. for 5 minutes, then 95° C. for 10 seconds, 55° C. for 20 seconds, 72° C. for 20 seconds. GAPDH was used as a control. Gene expression level was quantified by the comparative method 2-ΔΔCT.
as §2

[5] = test system: P. acnes ATCC 6919; assay: transmission electron microscopy of treated P. acnes; assay type: cell-based, Propionibacterium acnes; details: 58.5 μg/mL; 3 hour treatment
[6] = test system: P. acnes clinical isolates; assay: P. acnes CFU assay, clinical isolates; assay type: cell-based, Propionibacterium acnes

CC[C@H](C)[C@H](NC(=O)[C@H](CCCCN)NC(=O)[C@@H](NC(=O)[C@H](CCC(N)=O)NC(=O)[C@H](CCCNC(=N)N)NC(=O)CCC(=O)OC[C@H]1O[C@H](O[C@@H]2[C@@H](O)[C@H](O[C@H]3O[C@H](CN)[C@@H](O)C[C@H]3N)[C@@H](N)C[C@H]2N)[C@H](O)[C@@H](N)[C@@H]1O)[C@@H](C)CC)C(=O)N[C@@H](Cc1c[nH]c2ccccc12)C(=O)N[C@@H](Cc1ccccc1)C(=O)N[C@@H](CCC(N)=O)C(=O)N[C@@H](CC(N)=O)C(=O)N[C@@H](CCCNC(=N)N)C(=O)N[C@@H](CCCNC(=N)N)C(=O)N[C@@H](Cc1c[nH]c2ccccc12)C(=O)O [Pentobra] (HELM PEPTIDE1{[NC[C@H]1O[C@H](O[C@H]2[C@H](O)[C@@H](O[C@H]3O[C@H](COC(=O)CCC(=O)[*:2])[C@@H](O)[C@H](N)[C@H]3O)[C@H](N)C[C@@H]2N)[C@H](N)C[C@@H]1O].R.Q.I.K.I.W.F.Q.N.R.R.W}$$$$V2.0)
killing activity [1]: dose-dependent killing activity
reduction in viable colonies ([1]; 8 μM, 3 h): ten
reduction in CFU ([1]; 26 μM, 3 h): 5 log
change in IL-6, IL-8, TNF-α and IL-12p40 cytokine production [2]: no significant change
reduction in CFU ([3]; donor of FIG. 11B): 3 log
reduction in CFU ([3]; donors of FIGS. 11A and 11C): 6 log
inhibition of IL-12p40 gene expression [4]: little to no inhibition
inhibition of P. acnes-induced MCP-1, MDC, IP-10 expression [4]: 40-100%
P. acnes-induced IP-10 expression ([4]; p<0.001): completely abrogated
cell envelope morphology [5]: different types of cell envelope disruptions were observed
bactericidal activity advantage over free tobramycin [6]: 5-7 logs
bactericidal activity ([6]; all tested P. acnes strains): robust bactericidal activity
reduction in CFU ([6]; isolate HL063PA2 (healthy), 26 μM): greater than 5 log
reduction in CFU ([6]; isolate HL110PA1 (acne associated), 26 μM): greater than 5 log
reduction in CFU ([6]; strain HL043PA1, 13 μM): greater than 5 log units
reduction in CFU ([6]; strain HL053PA2, 13 μM): greater than 5 log units
reduction in CFU ([6]; strain HL110PA1, 13 μM): greater than 5 log units
reduction in CFU ([6]; strain HL110PA4 (healthy), highest concentration tested): 2 log
